Hit rate of the full screen: of about 360,000 compounds, about 7,500 (2.1%) were called active. The inconclusive results got no clear call from the source; some entries with a clear call stand among them for comparison. Calls follow the shape of the dose curve; as a rule, active = well fitted inhibition curve with a large enough effect; inconclusive = small, poorly fitted or top-dose-only effect, or effect the other way; inactive = flat fitted curve, though single readings scatter. A potency beside an inconclusive call is a rough fit, not a confirmed value.
test: Nrf2 qHTS screen for inhibitors; settings: A549 ARE-Fluc reporter, luciferase luminescence, 18-24 h; series mostly up to 46 µM; also: nearly all actives have a fitted effect of over 60% in size
How it was run: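 A549 ARE_Fluc cells, 5000/well, 5% FBS OPTI-MEM; compounds in dose-response, 18-24 h at 37 °C/5% CO2; CellTiter-Fluor viability read (Ex 405/Em 525), then BugLite luciferase luminescence = Nrf2 activity.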
Potency is read from the fitted curve at half-maximal effect.

Compound | Potency
O=C(c1cc2cc(F)ccc2[nH]1)N1CCc2ccccc21 | inconclusive: 0.92 µM [activator, full curve]
COc1ccc(Cl)cc1C(=O)NNC(=S)NC(=O)c1cc(-c2ccc(Cl)cc2)nc2ccccc12 | inconclusive: 3.66 µM [falling, full curve]
O=C1N[C@@H](c2ccccc2)COC(=O)[C@H](Cc2ccc(F)cc2)CC/C=C/C[C@H]1CC(=O)N(CCO)Cc1ccccc1 | inconclusive: 25.9 µM [falling, single point]
Cc1ccc(NC(=S)N2CCCC(O)C2)cc1 (stereo not drawn) | inconclusive: 18.4 µM [activator, single point]
Cc1c(C(=O)Oc2cccc3ccccc23)cnn1-c1ccccc1 | inconclusive: 9.2 µM [activator, partial curve]
O=C(Nc1cccc(C(F)(F)F)c1)C1CCCN1S(=O)(=O)c1cccc2cccnc12 (stereo not drawn) | inconclusive: 16.4 µM [falling, single point]
CCN(CC)C(=O)CSc1nc(-c2cccs2)cc(-c2cccs2)c1C#N | active: 18.4 µM
c1ccc2c(-c3ccncc3)c[nH]c2c1 | inconclusive: 14.6 µM [falling, partial curve]
COc1ccc(C2N=C(c3ccccc3)NO2)cc1OC (stereo not drawn) | inconclusive: 6.51 µM [activator, partial curve]
COc1ccc(N(CCC(=O)NCCc2ccccc2)S(=O)(=O)c2ccc(C)cc2C)cc1 | inconclusive: 9.2 µM [activator, partial curve]
COc1ccc(N(C)C(=O)c2onc3c2CCCC3)cc1 | inactive
Cc1ccc(S(=O)(=O)CCC(=O)OCc2cc(C)ccc2C)cc1 | inactive
COC(=O)C1=C(C)N(Cc2ccccc2)C(=S)N[C@H]1c1cccc(F)c1 | inconclusive: 29.1 µM [falling, single point]
O=C(NCc1nc2ccccc2[nH]1)c1cccc(S(=O)(=O)N2CCCCC2)c1 | inconclusive: 11.6 µM [falling, partial curve]
N/C(=N\OC(=O)c1ccccc1[N+](=O)[O-])c1ccccn1 | inconclusive: 10.3 µM [activator, partial curve]
CC(=O)c1c(C)[nH]c(C(=O)OCC(=O)N2CCc3ccccc3C2)c1C | inconclusive: 29.1 µM [falling, single point]
CC(=O)c1c(OC(=O)c2ccc(C)cc2)c2ccccc2n1C | inconclusive: 29.1 µM [falling, single point]
Cc1nc(NC(=O)Nc2ccc(Cl)cc2)sc1C | inconclusive: 5.8 µM [activator, partial curve, poor fit]

Two entries drawn at random from those above:
Compound | Potency
c1ccc2c(-c3ccncc3)c[nH]c2c1 | inconclusive: 14.6 µM [falling, partial curve]
COC(=O)C1=C(C)N(Cc2ccccc2)C(=S)N[C@H]1c1cccc(F)c1 | inconclusive: 29.1 µM [falling, single point]

Source: PubChem BioAssay AID504444 (National Center for Advancing Translational Sciences (NCATS), 2011)
